Laboratory results as given in PMC3617232.
Numbering of substitutions follows the chain as printed. Names may count otherwise. No constants are given. Whether binding was seen depends on the method and setting. In cells and extracts the contact can be indirect. A result given as binding can be weak or reduced; the word gives no strength.

T1: mouse K-Cl cotransporter-3 (KCC3a), wild type (mouse) (UniProt Q924N4)
T1 sequence: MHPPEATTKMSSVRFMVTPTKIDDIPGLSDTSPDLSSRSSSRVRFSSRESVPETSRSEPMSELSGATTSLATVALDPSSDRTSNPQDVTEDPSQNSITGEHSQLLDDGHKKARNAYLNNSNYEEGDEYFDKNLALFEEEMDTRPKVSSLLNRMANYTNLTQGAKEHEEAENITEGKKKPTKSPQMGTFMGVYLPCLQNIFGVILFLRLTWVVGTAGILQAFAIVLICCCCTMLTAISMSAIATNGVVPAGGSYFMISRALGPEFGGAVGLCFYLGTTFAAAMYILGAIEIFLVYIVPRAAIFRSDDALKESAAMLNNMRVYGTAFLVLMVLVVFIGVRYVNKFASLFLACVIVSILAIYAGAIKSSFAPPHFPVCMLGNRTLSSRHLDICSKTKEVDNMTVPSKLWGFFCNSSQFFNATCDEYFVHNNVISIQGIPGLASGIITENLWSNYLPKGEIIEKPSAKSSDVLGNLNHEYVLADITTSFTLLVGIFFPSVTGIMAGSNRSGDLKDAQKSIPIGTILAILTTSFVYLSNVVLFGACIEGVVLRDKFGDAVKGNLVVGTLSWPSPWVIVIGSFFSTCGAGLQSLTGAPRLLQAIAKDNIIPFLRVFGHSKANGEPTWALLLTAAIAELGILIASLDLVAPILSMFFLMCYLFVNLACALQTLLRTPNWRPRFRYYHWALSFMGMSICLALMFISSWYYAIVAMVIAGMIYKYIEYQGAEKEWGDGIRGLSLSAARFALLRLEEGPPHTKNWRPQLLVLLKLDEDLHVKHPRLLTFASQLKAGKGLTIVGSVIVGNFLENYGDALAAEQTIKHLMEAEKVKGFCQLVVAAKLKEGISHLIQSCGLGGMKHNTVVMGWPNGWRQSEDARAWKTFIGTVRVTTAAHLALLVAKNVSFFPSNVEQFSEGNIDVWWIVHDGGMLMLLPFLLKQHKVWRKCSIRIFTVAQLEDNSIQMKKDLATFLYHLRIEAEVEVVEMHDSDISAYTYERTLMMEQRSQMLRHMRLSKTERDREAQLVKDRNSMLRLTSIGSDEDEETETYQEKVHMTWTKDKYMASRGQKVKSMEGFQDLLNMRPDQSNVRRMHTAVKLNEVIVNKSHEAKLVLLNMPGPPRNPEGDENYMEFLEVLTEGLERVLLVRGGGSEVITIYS

T2: mouse KCC3-E289G mutant (mouse) (UniProt Q924N4)
T2 sequence: T1 sequence with E289G

B1: mouse K-Cl cotransporter-3 (KCC3a), wild type (protein, UniProt Q924N4-1 1-1150)
chain: T1 sequence
B2: mouse KCC3-E289G mutant (protein, UniProt Q924N4 1-1150)
chain: T1 sequence with E289G

Experiments:
Assay in all cases: co-IP; Xenopus laevis oocytes co-injected with 15 ng each mKCC3 (wild type or E289G) and rKCC2 cRNA, 3 days at 16 C; homogenate in 50 mM HEPES with protease inhibitors; anti-KCC3 or anti-KCC2 antibody overnight at 4 C, Protein A sepharose; Western blot for the other cotransporter; anti-GFP IgG as negative control
[1] = target: T1, mouse K-Cl cotransporter-3 (KCC3a), wild type (mouse)
[2] = target: T2, mouse KCC3-E289G mutant (mouse)
[3] = target: rat K-Cl cotransporter KCC2 (rat)

| Molecule | binding [1] | binding [2] | binding [3] |
| --- | --- | --- | --- |
| rat K-Cl cotransporter KCC2 | binds | binds |  |
| B1 |  |  | binds |
| B2 |  |  | binds |
